The conditions of data set [1]: heart only model, after 5 µM terfenadine, mean ± SD.
For data set [2] the following is noted: heart:liver model, after 5 µM terfenadine, 24 hours, mean ± SD.

Where two headings read alike, the source gives them in different places.

In the case of `CC(C)(C(=O)O)c1ccc(C(O)CCCN2CCC(C(O)(c3ccccc3)c3ccccc3)CC2)cc1` (centres unmarked) [fexofenadine], the entries for the “fexofenadine concentration in media” value in data set [1] and in data set [2] were 0.124 µM and 3.8 µM, respectively.

These data come from article PMC6610665, “On the potential of in vitro organ-chip models to define temporal pharmacokinetic-pharmacodynamic relationships” (Scientific Reports, 2019).
